Results are given in words; binding and its absence hold for the method and conditions named. In cells and extracts the contact can be indirect. Some binding calls cover weakened binding; strength is not graded here.

Protein sequences, listed by entry. Tags and fused reporters are not part of them. Residues count along the entry.
UniProt Q96T51, residues 299-708: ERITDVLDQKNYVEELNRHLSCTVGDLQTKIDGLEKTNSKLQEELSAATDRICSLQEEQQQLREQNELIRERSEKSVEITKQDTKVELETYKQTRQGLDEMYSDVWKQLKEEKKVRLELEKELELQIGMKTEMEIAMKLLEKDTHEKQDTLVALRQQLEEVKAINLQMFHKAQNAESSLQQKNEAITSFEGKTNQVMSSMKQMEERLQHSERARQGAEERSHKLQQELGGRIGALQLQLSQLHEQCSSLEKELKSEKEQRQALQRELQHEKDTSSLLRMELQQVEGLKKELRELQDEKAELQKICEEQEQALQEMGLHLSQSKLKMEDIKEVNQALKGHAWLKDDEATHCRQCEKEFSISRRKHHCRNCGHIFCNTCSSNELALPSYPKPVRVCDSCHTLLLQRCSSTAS

Our source for the binding values is PMC3483219.

Experiment [1] addresses GST-rabip4’(aa 299–708) (UniProt Q96T51). The experiment in a line: pull-down; GST fusion proteins on beads incubated with detergent extracts of rescued mocha fibroblasts; Western blot for adaptor subunits (δ-adaptin for the mapping); only the target purified. On the technique in general: Immunoblotting shows a protein as a band on a membrane.
For experiment [2] the target is unchanged. The experiment in a line: pull-down; GST-rabip4’ immobilised on GSH beads, incubated with 35S-labeled in vitro translated AP-3 subunits or Myc-tagged β3A truncations; SDS-PAGE, phosphorimaging; only the target purified.
Experiment [3] addresses T1, δ-adaptin (HeLa) (human (endogenous in HeLa)) (UniProt O14617).
T1 sequence: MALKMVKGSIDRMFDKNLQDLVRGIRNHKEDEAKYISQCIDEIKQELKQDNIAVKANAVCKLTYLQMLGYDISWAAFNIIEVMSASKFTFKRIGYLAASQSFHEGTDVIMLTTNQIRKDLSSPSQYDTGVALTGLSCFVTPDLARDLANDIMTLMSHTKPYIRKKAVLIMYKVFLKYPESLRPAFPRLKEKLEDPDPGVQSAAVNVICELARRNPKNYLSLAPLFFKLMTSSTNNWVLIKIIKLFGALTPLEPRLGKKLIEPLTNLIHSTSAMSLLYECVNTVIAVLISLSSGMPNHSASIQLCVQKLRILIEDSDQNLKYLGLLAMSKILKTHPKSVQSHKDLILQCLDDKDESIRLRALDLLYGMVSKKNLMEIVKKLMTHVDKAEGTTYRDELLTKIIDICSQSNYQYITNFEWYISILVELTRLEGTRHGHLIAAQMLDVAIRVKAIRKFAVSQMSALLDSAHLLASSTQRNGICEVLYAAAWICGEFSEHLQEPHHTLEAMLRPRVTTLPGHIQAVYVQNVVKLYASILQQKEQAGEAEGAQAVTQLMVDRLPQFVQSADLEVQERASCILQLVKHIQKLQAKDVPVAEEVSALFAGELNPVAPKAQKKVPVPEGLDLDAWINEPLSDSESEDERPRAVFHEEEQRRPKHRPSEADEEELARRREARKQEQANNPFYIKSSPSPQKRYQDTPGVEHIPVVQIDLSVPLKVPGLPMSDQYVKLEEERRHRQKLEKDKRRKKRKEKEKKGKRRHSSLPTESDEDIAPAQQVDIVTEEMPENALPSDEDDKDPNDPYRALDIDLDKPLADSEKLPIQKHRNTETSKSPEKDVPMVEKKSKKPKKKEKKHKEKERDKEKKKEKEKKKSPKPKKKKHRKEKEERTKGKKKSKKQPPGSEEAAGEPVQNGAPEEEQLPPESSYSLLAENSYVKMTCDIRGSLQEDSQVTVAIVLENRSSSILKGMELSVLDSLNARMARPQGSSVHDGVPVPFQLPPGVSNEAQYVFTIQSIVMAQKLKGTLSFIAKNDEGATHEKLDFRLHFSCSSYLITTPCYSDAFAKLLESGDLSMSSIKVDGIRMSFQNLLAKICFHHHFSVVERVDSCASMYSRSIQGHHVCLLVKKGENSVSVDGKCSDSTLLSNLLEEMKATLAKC
The experiment in a line: co-IP; lysates of HeLa cells expressing VSVG-rabip4’ (50 mM HEPES pH 7.4, 150 mM NaCl, 1.5 mM MgCl2, 1 mM EDTA, 1% Triton X100); immunoprecipitation with anti-δ-adaptin or anti-γ1-adaptin; Western blot for VSVG and AP-3 subunits.

B1: β3A-adaptin (rescued mocha fibroblasts) (protein, UniProt Q9Z1T1 1-1105)
chain: MSSNSFAYNEQSGGGEAAELGQEATSTISPSGAFGLFSSDWKKNEDLKQMLESNKDSAKLDAMKRIVGMIAKGKNASELFPAVVKNVASKNIEIKKLVYVYLVRYAEEQQDLALLSISTFQRALKDPNQLIRASALRVLSSIRVPIIVPVMMLAIKEASADLSPYVRKNAAHAIQKLYSLDPEQKEMLIEVIEKLLKDKSTLVAGSVVMAFEEVCPDRIDLIHRNYRKLCNLLVDVEEWGQVVIIHMLTRYARTQFVSPWREDGGLEDNEKNFYESEEEEEEKEKSSRKKSYAMDPDHRLLIRNTKPLLQSRNAAVVMAVAQLYWHISPKSEAGVISKSLVRLLRSNREVQYIVLQNIATMSIERKGMFEPYLKSFYVRSTDPTMIKTLKLEILTNLANEANISTLLREFQTYVRSQDKQFAAATIQTIGRCATSISEVTDTCLNGLVCLLSNRDEIVVAESVVVIKKLLQMQPAQHGEIIRHMAKLLDSITVPVARASILWLIGENCERVPKIAPDVLRKMAKSFTSEDDLVKLQILNLAAKLYLTNSKQTKLLTQYILNLGKYDQNYDIRDRTRFIRQLIVPNEKSGALSKYAKKIFLAPKPAPLLESPFKDRDRFQLGTLSHTLNIKASGYLELSNWPEVAPDPSVRNVEVIESAKEWTPLGKTKKEKPMKKFYSESEEEEDEDEDEDEEEEEKEDEDENPSDSSSDSESGSGSESGDTGTEDSSEDSSSGQDSETGSQAEAERQKVAKRNSKTKRKSDSENREKKNENSKASESSSEESSSMEDSSSESESESGSDSEPAPRNVAPAKERKPQQERHPPSKDVFLLDLDDFNPVSTPVALPTPALSPSLIADLEGLNLSTSSSVINVSTPVFVPTKTHELLHRMHGKGLAAHYCFPRQPCIFSDKMVSVQITLTNTSDRKIENIHIGGKGLPVGMQMHAFHPIDSLEPKGSVTVSVGIDFCDSTQTASFQLCTKDDCFNVTLQPPVGELLSPVAMSEKDFKKEQGTLTGMNETSATLIAAPQNFTPSMILQKVVNVANLGAVPSSQDNVHRFAARTVHSGSLMLVTVELKEGSTAQLIINTEKTVIGSVLLRELKPVLSQG
For B1, the binding entry with GST-rabip4’(aa 299–708) [1] is given as “binds”.

B2: ^35S-labeled δ-adaptin (protein, UniProt O14617 1-1153)
chain: T1 sequence
modifications: 35S-methionine label
For the molecule B2, in the experiment with GST-rabip4’(aa 299–708) [2], the binding entry is listed as “no binding”.

B3: μ3A-adaptin (HeLa) (protein, UniProt Q9Y2T2 1-418)
chain: MIHSLFLINCSGDIFLEKHWKSVVSQSVCDYFFEAQEKAADVENVPPVISTPHHYLISIYRDKLFFVSVIQTEVPPLFVIEFLHRVADTFQDYFGECSEAAIKDNVVIVYELLEEMLDNGFPLATESNILKELIKPPTILRSVVNSITGSSNVGDTLPTGQLSNIPWRRAGVKYTNNEAYFDVVEEIDAIIDKSGSTVFAEIQGVIDACIKLSGMPDLSLSFMNPRLLDDVSFHPCIRFKRWESERVLSFIPPDGNFRLISYRVSSQNLVAIPVYVKHSISFKENSSCGRFDITIGPKQNMGKTIEGITVTVHMPKVVLNMNLTPTQGSYTFDPVTKVLTWDVGKITPQKLPSLKGLVNLQSGAPKPEENPSLNIQFKIQQLAISGLKVNRLDMYGEKYKPFKGVKYVTKAGKFQVRT
On to B3, for which the binding entry in experiment [3] is “binds”.

B4: β3A-adaptin (HeLa) (protein, UniProt O00203 1-1094)
chain: MSSNSFPYNEQSGGGEATELGQEATSTISPSGAFGLFSSDLKKNEDLKQMLESNKDSAKLDAMKRIVGMIAKGKNASELFPAVVKNVASKNIEIKKLVYVYLVRYAEEQQDLALLSISTFQRALKDPNQLIRASALRVLSSIRVPIIVPIMMLAIKEASADLSPYVRKNAAHAIQKLYSLDPEQKEMLIEVIEKLLKDKSTLVAGSVVMAFEEVCPDRIDLIHKNYRKLCNLLVDVEEWGQVVIIHMLTRYARTQFVSPWKEGDELEDNGKNFYESDDDQKEKTDKKKKPYTMDPDHRLLIRNTKPLLQSRNAAVVMAVAQLYWHISPKSEAGIISKSLVRLLRSNREVQYIVLQNIATMSIQRKGMFEPYLKSFYVRSTDPTMIKTLKLEILTNLANEANISTLLREFQTYVKSQDKQFAAATIQTIGRCATNILEVTDTCLNGLVCLLSNRDEIVVAESVVVIKKLLQMQPAQHGEIIKHMAKLLDSITVPVARASILWLIGENCERVPKIAPDVLRKMAKSFTSEDDLVKLQILNLGAKLYLTNSKQTKLLTQYILNLGKYDQNYDIRDRTRFIRQLIVPNVKSGALSKYAKKIFLAQKPAPLLESPFKDRDHFQLGTLSHTLNIKATGYLELSNWPEVAPDPSVRNVEVIELAKEWTPAGKAKQENSAKKFYSESEEEEDSSDSSSDSESESGSESGEQGESGEEGDSNEDSSEDSSSEQDSESGRESGLENKRTAKRNSKAKGKSDSEDGEKENEKSKTSDSSNDESSSIEDSSSDSESESEPESESESRRVTKEKEKKTKQDRTPLTKDVSLLDLDDFNPVSTPVALPTPALSPSLMADLEGLHLSTSSSVISVSTPAFVPTKTHVLLHRMSGKGLAAHYFFPRQPCIFGDKMVSIQITLNNTTDRKIENIHIGEKKLPIGMKMHVFNPIDSLEPEGSITVSMGIDFCDSTQTASFQLCTKDDCFNVNIQPPVGELLLPVAMSEKDFKKEQGVLTGMNETSAVIIAAPQNFTPSVIFQKVVNVANVGAVPSGQDNIHRFAAKTVHSGSLMLVTVELKEGSTAQLIINTEKTVIGSVLLRELKPVLSQG
Consider B4, for which the binding result in experiment [3] is recorded as “binds”.

B5: ^35S-labeled β3A (protein, UniProt O00203 1-1094)
chain: B4 chain
modifications: 35S-methionine label
In the case of B5, the binding entry with GST-rabip4’(aa 299–708) [2] is recorded as “binds”.
